This is an account of results in PubChem BioAssay AID2685 (National Center for Advancing Translational Sciences (NCATS), 2010).

The other results are listed elsewhere or left out. These are further read-outs of the screen, such as a control signal, another cell line or another target. No call is given for them. Most of these compounds were active or inconclusive in the main read-out, so they are no random draw. The note in brackets gives the kind of curve behind each potency; many fits are weak.

The experiment in a line: qHTS Assay for Lipid Storage Modulators in Drosophila S3 Cells.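 As to cell number change: cells counted by Cell Tracker Red CMTPX staining in the red channel.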 The settings on record: BODIPY lipid droplet fluorescence, 18-24 h; for cell number change: measured here: cell count max response, cells fed with added oleic acid. The essentials: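 Drosophila S3 cells got compounds at several concentrations plus oleic acid (400 uM solution). Laser-scanning cytometry with 488 nm excitation read lipid droplets at 500-530 nm and cells at 575-640 nm. Percent activity was relative to 20 uM Triacsin C.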
On the technique in general: In qHTS, concentration-response curves come from the screen itself.

Where [1] appears, read: measured here: lipid fluorescence (Fed channel) AC50, cells fed with added oleic acid.
Where [2] appears, read: measured here: cell number channel AC50, cells fed with added oleic acid.

In general, AC50 refers to the concentration at which the activity in the assay is half-maximal. Higher therefore signals activity only at high concentration. As for `CC(C)C1Cc2c(sc3c2c(=O)n(Cc2ccccc2)c2nncn32)CO1` (stereo not given), the cell number change is -14%. Further, the AC50 under setting [1] is 0.092 µM [rising, full curve, poor fit].
As to `CC(C)(C)N(C=C(Cl)Cl)C(=O)NC1CCCCC1`, the cell number change was -16.5%. Moreover, the AC50 under setting [1] is 0.651 µM [falling, full curve, poor fit].
As to `CC1CCC/C(=C(\C#N)c2nc(-c3cc4ccccc4oc3=O)cs2)C1` (stereo not given), the cell number change is -4.65%. Also, the AC50 under setting [1] is 1.64 µM [rising, partial curve, poor fit].
`CCN(CC)c1ccc(-c2nn3c(-c4ccccc4OC)nnc3s2)cc1`: the cell number change was -45.4%. Besides, under setting [2], the AC50 is 8.2 µM [falling, partial curve, poor fit]. Further, the AC50 under setting [1] was 6.51 µM [falling, partial curve].
With `CCCOC(=O)CSc1nc(N)c(C#N)c(CC)c1C#N`, the cell number change was 20.9%. Moreover, under setting [1], the AC50 was 16.4 µM [rising, single point].
As to `COc1ccccc1C(=O)NCc1ccc(-c2nc3ccccc3s2)cc1`, the cell number change came to 4.64%. Moreover, the AC50 under setting [1] was 10.3 µM [rising, partial curve].
For `CCc1ccccc1N(CC(=O)N1CCCCCC1)S(C)(=O)=O`, the cell number change was -10.8%. Further, the AC50 under setting [1] is 6.51 µM [rising, full curve].
On to `CC1CCCCN1S(=O)(=O)c1ccc(C(=O)Nc2ccccc2-c2nc3ccccc3s2)cc1` (stereo not given), for which the cell number change is 5.34%. Under setting [1], the AC50 is 0.184 µM [rising, full curve, poor fit].
For the compound `O=C(Nc1cccc([N+](=O)[O-])c1)c1ccc2ccccc2c1O`, the cell number change is -36.6%. Besides, the AC50 under setting [2] was 20.6 µM [falling, single point]. The AC50 under setting [1] was 16.4 µM [falling, single point].
Consider `N#Cc1ccccc1CN1C(=O)NC(Cc2c[nH]c3ccccc23)C1=O` (stereo not given), for which the cell number change was determined as 31%. In addition, the AC50 under setting [2] is 29.1 µM [rising, single point].
Regarding `COC(=O)c1cccc(NC(=O)Cc2ccc(OC)cc2)c1C`, the half-maximal activity concentration (AC50) under setting [2] is 0.0651 µM [rising, full curve] and the AC50 under setting [1] is 0.184 µM [rising, partial curve].
Regarding `CCC(=O)Nc1cc(NC(=O)CSc2ncc(-c3ccc(F)cc3)n2Cc2ccco2)ccc1C`, the cell number change was -4.81%. Moreover, the AC50 under setting [1] was 0.116 µM [rising, full curve, poor fit].
With `CCCc1nnc(NC(=O)CCC(=O)N2CCN(S(=O)(=O)c3ccc(OC)cc3)CC2)s1`, the cell number change amounted to 12.5%. In addition, the AC50 under setting [1] was 0.00461 µM [rising, full curve, poor fit].
For `CC(C)(CN=C1NS(=O)(=O)c2ccccc21)CNC(=O)CN1C(=O)c2ccccc2C1=O`, the cell number change is -10.4%. Also, under setting [1], the AC50 is 0.00411 µM [rising, full curve, poor fit].
Regarding `Cc1cc(=O)oc(C)c1C(=O)OCC(=O)c1ccc2ccccc2c1`, the AC50 under setting [2] was 6.51 µM [rising, single point].
In the case of `Cc1ccccc1NC(=O)Cn1cnc2c(oc3ccccc32)c1=O`, the cell number change came to 34.2%. Moreover, the AC50 under setting [2] is 0.0517 µM [rising, full curve, poor fit]. Also, the AC50 under setting [1] is 6.51 µM [rising, partial curve, poor fit].
Turning to `COc1ccccc1-c1c(C)oc2c(CN3CCCC(C)C3)c(O)ccc2c1=O` (stereo not given), the cell number change was 8.33%.
`CCCCC(CC)CNC(=O)c1[nH]c(C)c(C(C)=O)c1C` (stereo not given): the cell number change is -34.6%. In addition, under setting [2], the AC50 is 16.4 µM [falling, single point].
In the case of `Cn1/c(=N\NC(=O)c2ccccc2Cl)sc2ccccc21`, the cell number change worked out at 6.61%. Also, the AC50 under setting [2] was 7.31 µM [rising, partial curve, poor fit]. The AC50 under setting [1] was 0.411 µM [falling, single point].
Take `CC(C)(C)NC(=O)CSc1nc(-c2ccccc2)c(-c2ccccc2)[nH]1`: the cell number change was -34.7%.
For the compound `CC1=C(C(=O)Nc2ccccc2C)C(c2cccs2)NC(=S)N1` (stereo not given), the cell number change worked out at 6.03%. Under setting [1], the AC50 is 3.66 µM [rising, single point].
On to `COCc1cc(C)nc(SCc2ccc(Cl)cc2)c1C#N`, for which the AC50 under setting [1] is 29.1 µM [falling, single point].
With `CC(C)CN=Cc1c(O)c([N+](=O)[O-])cc2oc3c(c12)CCCC3`, the cell number change is -36.5%. Further, under setting [2], the AC50 was 29.1 µM [falling, single point].
Turning to `O=C(CSc1nccc(=O)[nH]1)N1CCc2ccccc2C1`, the cell number change is 19.9%. Also, the AC50 under setting [1] was 6.51 µM [falling, single point].
In the case of `O=S(=O)(c1ccc(F)cc1)N1CCN(C(=S)NCc2ccccc2)CC1`, the AC50 is, setting by setting: under setting [2], 0.103 µM [falling, single point]; under setting [1], 0.092 µM [falling, single point].
For the compound `O=C(Nc1ccccc1)Nc1ccc(Br)c(Cl)c1`, the cell number change was -46.4%. For the same compound, the AC50 under setting [2] is 32.6 µM [falling, single point]. Also, the AC50 under setting [1] was 25.9 µM [falling, single point].
As for `CCOC(=O)NC(=O)CN1C(=O)NC2(CCc3ccccc32)C1=O` (stereo not given), the cell number change came out at 0.952%. Further, under setting [1], the AC50 is 0.206 µM [rising, single point].
As for `Cc1ccc(C(=O)OCCN2CCN(c3ncc(C(F)(F)F)cc3Cl)CC2)cc1`, the cell number change was -5.13%. In addition, the AC50 under setting [1] is 3.66 µM [falling, single point].
On to `FC(F)(F)c1ccccc1/C=N/n1c(COc2ccccc2)n[nH]c1=S`, for which the cell number change was -16.7%. Also, the AC50 under setting [1] was 13 µM [rising, partial curve].
`CCOc1ccc(OCCOC(=O)CN2C(=O)NC3(CCCC3)C2=O)cc1`: the cell number change was -25%. Under setting [2], the AC50 is 1.64 µM [rising, partial curve].
With `Cc1ccccc1C(=O)N1CCC(C(=O)OCc2nc(N)nc(Nc3ccccc3)n2)CC1`, the cell number change is -3.13%. In addition, the AC50 under setting [1] was 6.51 µM [rising, single point].
For `CC(=O)Nc1ccc(-c2csc(Nc3ccc(Cl)cn3)n2)cc1`, the cell number change was determined as 93.9%. Moreover, under setting [2], the AC50 is 2.59 µM [rising, full curve]. For the same compound, the AC50 under setting [1] was 3.26 µM [rising, full curve].
For `CC(C(=O)O)C1SC(=O)NC1=O` (stereo not given), the cell number change was -4.93%. Besides, the AC50 under setting [1] was 20.6 µM [falling, partial curve].
With `COc1ccc(C2CC(c3ccc4ccccc4c3)=NN2C(=O)CNC2CCCCC2)cc1` (stereo not given), the cell number change is -19%. Moreover, the concentration at half-maximal activity (AC50) under setting [2] was 0.00461 µM [rising, full curve, poor fit].
As for `COc1ccc(Cc2noc(-c3ccc([N+](=O)[O-])cc3)n2)cc1OC`, the cell number change amounted to 5.12%. Moreover, the AC50 under setting [2] is 3.26 µM [rising, single point].
In the case of `Cc1ccc(-c2nc(CSCC(=O)Nc3cc(C)on3)c(C)o2)cc1`, the cell number change stood at 20.5%. Also, the AC50 under setting [1] was 0.461 µM [rising, full curve].
Take `CCOc1ccc(CCNC(=O)COC(=O)c2cc(S(=O)(=O)N3CCOCC3)ccc2F)cc1OCC`: the cell number change was -6.52%. For the same compound, the AC50 under setting [1] was 29.1 µM [falling, single point].
With `CCCn1c(C)cc(C(=O)CSc2nc3nc(C)cc(C)n3n2)c1C`, the cell number change was found to be 19.7%. Moreover, the AC50 under setting [1] is 29.1 µM [rising, single point].
`COc1ccc(/C=C(/NC(=O)c2ccco2)C(=O)N2CCCCCC2)cc1OC`: the cell number change is -0.668%. Also, the AC50 under setting [1] was 25.9 µM [rising, single point].
With `CC(=O)N1CC(C)Sc2ccc(S(=O)(=O)NCCc3ccc(C)cc3)cc21` (stereo not given), the concentration at half-maximal activity (AC50) under setting [1] was 3.26 µM [falling, full curve].
`CCS(=O)(=O)c1ccc(O)c(NC(=O)NC2CCCCC2)c1`: the cell number change was -18.6%. Further, the AC50 under setting [1] was 2.06 µM [falling, full curve, poor fit].
With `COc1ccc(C(=O)NCCCNC(=O)c2cccnc2)cc1OC`, the cell number change was -4.76%. In addition, the AC50 under setting [1] was 10.3 µM [falling, partial curve, poor fit].
For `N#CC(=C1CCCC1)c1nc(-c2ccccc2O)cs1`, the cell number change worked out at 41%. Besides, the AC50 under setting [2] was 10.3 µM [rising, partial curve].
As to `N#CCSc1nc2[nH]ncc2c(=O)n1-c1ccccc1Br`, the cell number change amounted to 20.8%. Moreover, the AC50 under setting [2] was 1.46 µM [rising, full curve, poor fit]. The AC50 under setting [1] was 0.517 µM [rising, full curve, poor fit].
As to `COc1ccc(-c2[nH]c(-c3ccc(C)cc3)nc2SCC(=O)NC2CCCC2)cc1`, the cell number change was -18.7%.
As for `CC1N(C(=O)N2CCOCC2)CCN1S(=O)(=O)c1cccc(C(F)(F)F)c1` (stereo not given), the cell number change was 4.17%.
Take `Fc1ccc(-n2c(CN3CCCCC3)n[nH]c2=S)cc1`: the AC50 under setting [1] was 0.58 µM [falling, single point].
`COCc1nnc(NC(=O)CCc2ccc(OC)cc2)s1`: the cell number change turned out to be 11.9%.
On to `CC12CCC(=O)N1C(C(=O)N1CCN(S(=O)(=O)c3cccc(Cl)c3)CC1)CS2` (stereo not given), for which the cell number change was determined as 43.8%. In addition, the half-maximal activity concentration (AC50) under setting [2] was 29.1 µM [rising, single point].
With `CCOC(=O)c1cc(-c2ccccc2C)nn1CC1CC(c2ccc(OC)cc2)=NO1` (stereo not given), the cell number change was -45.8%. Besides, the concentration at half-maximal activity (AC50) under setting [2] is 29.1 µM [falling, partial curve, poor fit].
With `COc1ccc(NC(=O)CC(c2ccc(F)cc2)c2ccc(OC(C)C)cc2)cc1` (stereo not given), the cell number change is -0.785%. Besides, under setting [1], the AC50 was 0.13 µM [rising, full curve, poor fit].
`CCO/C(C)=N/n1c2nc3ccccc3nc2c2c(=O)n(C3CCCC3)c(C)nc21`: the cell number change was 24.5%.
Consider `CCN(CCCNC(=O)CN1C(=O)COc2ccc(S(=O)(=O)N3CCC(C)CC3)cc21)Cc1ccccc1`, for which the cell number change worked out at 0.917%. Also, the AC50 under setting [1] was 0.651 µM [falling, single point].
Turning to `CCOc1ccccc1NC(=S)NC(=O)C1CC1`, under setting [1], the AC50 is 3.26 µM [falling, partial curve, poor fit].
For the compound `COc1ccc(CNC(=O)C2CCN(c3nc(-c4ccccc4)nc4c3CCC4)CC2)cc1`, the cell number change was determined as 3.25%. Besides, under setting [1], the AC50 is 29.1 µM [falling, single point].
In the case of `O=C(O)c1nc(N2CCCCC2)ncc1Cl`, the cell number change was -43.5%. Further, the AC50 under setting [2] is 16.4 µM [falling, partial curve]. Besides, under setting [1], the AC50 is 14.6 µM [falling, partial curve].
As for `CCCc1nc2oc3cc(OC)ccc3c(=O)c2c(=O)n1CCc1ccccc1`, the cell number change is 29.9%. The AC50 under setting [1] is 0.461 µM [rising, full curve].
On to `COCCCNC(=O)C1CCN(c2nc(C)cc(C)n2)CC1`, for which the cell number change was 0.711%. Also, the half-maximal activity concentration (AC50) under setting [1] is 1.16 µM [falling, full curve, poor fit].
As to `O=C(CC1CCCCC1)NCc1nc(-c2ccccc2)no1`, the cell number change amounted to 17.4%. Also, the AC50 under setting [1] was 13 µM [falling, partial curve, poor fit].
